Measured values taken from PubChem BioAssay AID248 (DTP/NCI, 2004).
The list shows only some results of the screen, not a fair sample: it is rich in T/C values a quarter to a half above the control, in often repeated tests (any T/C) and in doses without a T/C. Further doses and runs are listed elsewhere. T/C: endpoint of the treated group in % of that of the vehicle group. Some entries give survivors of the animals treated and no T/C: the source files T/C as zero there, which appears to mark a toxic dose or a test without result, not a measured value. Some survivor counts are full or nearly so, which does not show that the dose was tolerated: the source hardly ever lists a survival T/C far under the control, and the zero likely stands for such cases as well. Counts of survivors are from the toxicity check (mostly the fifth day) where no day follows; animals may have died later. Schedule codes are those of the source, read here as Q, the interval in days (D) or hours (H), X, the number of doses.

Test system: L1210 leukemia ip in BDF1 mice, survival T/C
Assay: NCI In Vivo Anticancer Drug Screen. Data for tumor model L1210 Leukemia (intraperitoneal) in B6D2F1 (BDF1) mice
Conditions: T/C endpoint: mean survival time, higher T/C = longer survival

Compound | survivor count (dose: 25.0 mg/kg/injection, schedule: Q01DX009 (ip), vehicle: saline with Tween-80) | survivor count (dose: 50.0 mg/kg/injection, schedule: Q01DX009 (ip), vehicle: saline with Tween-80) | survivor count (dose: 40.0 mg/kg/injection, schedule: Q01DX001 (ip), vehicle: saline) | survivor count (dose: 50.0 mg/kg/injection, schedule: Q01DX001 (ip), vehicle: saline) | survivor count (dose: 80.0 mg/kg/injection, schedule: Q01DX001 (ip), vehicle: saline) | survivor count (dose: 100.0 mg/kg/injection, schedule: Q01DX001 (ip), vehicle: saline) | survivor count (dose: 200.0 mg/kg/injection, schedule: Q01DX001 (ip), vehicle: saline) | survivor count (dose: 400.0 mg/kg/injection, schedule: Q01DX001 (ip), vehicle: saline)
O=C1C(=O)c2ccccc2C(O)=C1CCCc1ccc(OCc2ccccc2)cc1 | 6 of 6 | 5 of 6 |  |  |  |  |  | 
CC(=O)N(N=O)c1ccc(N(N=O)C(C)=O)cc1 |  |  | 0 of 4 | 2 of 4 | 0 of 4 | 0 of 4 | 0 of 4 | 0 of 4
